B1: Xenopus laevis wild-type GJA1-Flag [Xenopus laevis] / HA-tagged Rab11a [human] (parent complex)
chain 1: MGDWSALGRLLDKVQAYSTAGGKVWLSVLFIFRILLLGTAVESAWGDEQSAFVCNTQQPGCENVCYDKSFPISHVRFWVLQIIFVSTPTLLYLAHVFYLMRKEEKLNRKEEELKMVQNEGGNVDMHLKQIEIKKFKYGLEEHGKVKMRGGLLRTYIISILFKSVFEVGFIIIQWYMYGFSLSAIYTCKRDPCPHQVDCFLSRPTEKTIFIWFMLIVSIVSLALNIIELFYVTYKSIKDGIKGKKDPFSATNDAVISGKECGSPKYAYFNGCSSPTAPMSPPGYKLVTGERNPSSCRNYNKQASEQNWANYSAEQNRMGQAGSTISNTHAQPFDFSDEHQNTKKMAPGHEMQPLTILDQRPSSRASSHASSRPRPDDLEI
chain 2: MGTRDDEYDYLFKVVLIGDSGVGKSNLLSRFTRNEFNLESKSTIGVEFATRSIQVDGKTIKAQIWDTAGQERYRAITSAYYRGAVGALLVYDIAKHLTYENVERWLKELRDHADSNIVIMLVGNKSDLRHLRAVPTDEARAFAEKNGLSFIETSALDSTNVEAAFQTILTEIYRIVSQKQMSDRRENDMSPSNNVVPIHVPPTTENKPKVQCCQNI

Variants of: B1
Assay: co-immunoprecipitation (anti-flag antibody-conjugated beads), quantified immunoblot; HA-tagged Rab11a and GJA1-Flag co-expressed in RPE1 cells; n=3; parent: 1; read off a plot

Variant | ratio to parent
chain 1 T154A | ~0.38

From article PMC9448326 (2022)
